Laboratory results as given in US8697742B2, “BCRP/ABCG2 inhibitor” (Kabushiki Kaisha Yakult Honsha, priority 2005, dated 2014).
Where a name gives a salt, the structure may show the parent alone. At least one structure is not confirmed: it was looked up by name or label, or the drawing left a doubt.

Columns and labels:
[1] = tested on: P388/BCRP cells; experiment: Effect of overcoming SN-38 resistance of human BCRP gene-transduced P388 cells; format: cell-based, mouse; settings: with SN-38, 48 hours, FIG. 1
Experimental: (§1) Mouse leukemia P388 cells or human BCRP gene-transduced P388 cells (P388/BCRP cells) (see JP-A-2003-063989) were suspended in 10% FBS/RPMI1640 containing 2-mercaptethanol (50 μM), and the resultant suspension was added to a 96-well microplate (1×10^4 cells/50 μL/well). Thereafter, a solution of each of Compounds 1, 14, 21, 31, 39, and 41 of the present invention and SN-38 in 100 FBS/RPNI1640 (25 μL) was added to each of the wells, followed by culturing at 5% CO2 and 37° C. for 48 hours. After completion of culturing, the number of viable cells was counted by use of TetraColor ONE according to the manufacture's instruction manual.

[2] = tested on: P388 cells; experiment: Sensitivity of parental P388 cells to SN-38; format: cell-based, mouse; settings: with SN-38, 48 hours, FIG. 1
Experimental: as §1

Compound: COc1ccc(/C(C#N)=C/c2ccc(N3CCN(CCO)CC3)s2)cc1OC [Compound 14, (Z)-2-(3,4-dimethoxy-phenyl)-3-{5-[4-(2-hydroxy-ethyl)-piperazin-1-yl]-thiophen-2-yl}-acrylonitrile hydrochloride]
- Effect of overcoming the SN-38 resistance of the P388/BCRP cells [1]: potent effect of overcoming the SN-38 resistance
- Effect on sensitivity of the P388 cells to SN-38 [2]: did not affect the sensitivity
